Data as given in PubChem BioAssay AID1259327 (Drosophila RNAi Screening Center, 2017)
Screen: 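Baseline ATP after transmembrane-protein gene knock-down with water vehicle only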. Cell system: Drosophila S2R+ cells. Knock-down reagent: long dsRNA against Drosophila genes. Time to read-out: 5 days (water added on day 4, read one day later). Treatment: water added as vehicle, no metal, one day before read-out. Measurement: 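Total ATP measured by luciferase light, scaled to plate mean, duplicates averaged, then z-scored across plates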. Reading the numbers: ATP z-score: higher = more total ATP than typical wells; ATP luminescence: higher = more total ATP. Active means: 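Called active when the ATP z-score exceeds 1.5 or falls below -1.5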. Calls: active = hit: ATP up or down; inactive = no clear ATP change.
This is an unselected part of about 3,100 deposited reagents. Of all reagents, 378 (12%) were called active. 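Hits include both directions; z-score sign shows ATP rise or fall; raw luminescence values are not plate-normalised.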 A number with no mark means an inactive call. Names joined by + are all predicted targets of the reagent. Not stated in the record: the amount of reagent.

gene knocked down | amplicon | ATP z-score, duplicate mean | ATP luminescence, replicate 1 (RLU) | ATP luminescence, replicate 2 (RLU)
glec | DRSC16958 | -1.79 (active) | 2.24e5 | 5.53e5
glec | DRSC25314 | -0.436 | 7.12e5 | 8.81e5
Npc1a | DRSC03378 | 0.328 | 7.95e5 | 7.28e5
Npc1a | DRSC39428 | 0.4 | 4.42e5 | 5.15e5
CG7530 | DRSC25476 | -0.687 | 7.86e5 | 7.43e5
CG7530 | DRSC39584 | -0.139 | 4.82e5 | 4.29e5
meigo | DRSC15877 | 0.276 | 3.26e5 | 7.55e5
meigo | DRSC25836 | 0.332 | 9.49e5 | 8.33e5
Sfxn2 | DRSC10718 | 0.796 | 1.15e6 | 8.60e5
Sfxn2 | DRSC39646 | -1.16 | 4.06e5 | 3.65e5
Or42a | DRSC04912 | -0.965 | 5.43e5 | 5.21e5
Or13a | DRSC20265 | -0.293 | 6.58e5 | 8.23e5
Or13a | DRSC39651 | -1.07 | 4.08e5 | 3.76e5
GluRIIB | DRSC03335 | -0.652 | 6.74e5 | 6.40e5
GluRIIB | DRSC39568 | 2.3 (active) | 6.46e5 | 5.96e5
VhaPPA1-1 | DRSC16170 | 1.26 | 8.85e5 | 7.87e5
VhaPPA1-1 | DRSC24144 | -0.267 | 8.14e5 | 8.20e5
CG33298 | DRSC02210 | -0.117 | 7.21e5 | 7.07e5
CG33298 | DRSC02672 | 0.16 | 4.69e5 | 5.13e5
Inx2 | DRSC18783 | -0.051 | 7.03e5 | 6.97e5
Inx2 | DRSC24455 | -0.599 | 8.28e5 | 7.23e5
5-HT1A | DRSC05030 | -1.36 | 4.72e5 | 5.21e5
5-HT1A | DRSC26404 | 0.503 | 1.01e6 | 1.07e6
Nhe3 | DRSC03380 | 0.838 | 7.72e5 | 8.57e5
Nhe3 | DRSC39850 | 1.4 | 5.43e5 | 6.14e5
wun | DRSC07719 | -1 | 6.29e5 | 6.18e5
wun | DRSC36710 | -0.555 | 5.14e5 | 5.52e5
wun | DRSC36711 | -0.814 | 4.49e5 | 5.73e5
Nup214 | DRSC04421 | 0.187 | 6.72e5 | 8.32e5
Nup214 | DRSC39709 | 1.07 | 5.63e5 | 5.12e5

Reagents listed above with an active call (2):
gene knocked down | amplicon | ATP z-score, duplicate mean | ATP luminescence, replicate 1 (RLU) | ATP luminescence, replicate 2 (RLU)
glec | DRSC16958 | -1.79 (active) | 2.24e5 | 5.53e5
GluRIIB | DRSC39568 | 2.3 (active) | 6.46e5 | 5.96e5

Additional reagents follow:
gene knocked down | amplicon | ATP z-score, duplicate mean | ATP luminescence, replicate 1 (RLU) | ATP luminescence, replicate 2 (RLU)
CG14731 | DRSC14952 | -0.028 | 3.09e5 | 7.31e5
CG14731 | DRSC39683 | -0.377 | 3.89e5 | 4.92e5
GAA1 | DRSC18267 | 0.602 | 7.99e5 | 7.37e5
GAA1 | DRSC39778 | -1.64 (active) | 4.21e5 | 3.03e5
Lcch3 | DRSC22175 | 0.0773 | 7.20e5 | 4.50e5
nes | DRSC11375 | -0.788 | 8.28e5 | 7.59e5
nes | DRSC39655 | -0.265 | 4.15e5 | 4.81e5
CG34030 | DRSC08866 | -1.27 | 5.80e5 | 6.30e5
Grl65a | DRSC08837 | -0.472 | 6.83e5 | 7.00e5
Grl65a | DRSC25986 | -0.28 | 7.47e5 | 8.84e5
CG12290 | DRSC14497 | 0.174 | 7.47e5 | 7.01e5
CG12290 | DRSC28328 | 0.379 | 9.52e5 | 7.92e5
CG7536 | DRSC20050 | 0.436 | 8.26e5 | 6.78e5
CG7536 | DRSC39596 | 1.1 | 5.28e5 | 5.53e5
sina + Rh4 | DRSC11396 | -0.311 | 7.02e5 | 6.93e5
CG16700 | DRSC19755 | 0.327 | 7.72e5 | 7.84e5
CG16700 | DRSC39560 | -1.35 | 3.63e5 | 3.85e5
Ir48c | DRSC06154 | -0.52 | 6.09e5 | 5.36e5
Ir48c | DRSC39434 | -1.03 | 4.34e5 | 3.39e5
Unc50 | DRSC16561 | 0.253 | 3.71e5 | 6.34e5
Unc50 | DRSC28560 | -0.249 | 8.52e5 | 7.39e5
HisT | DRSC05051 | 0.318 | 7.17e5 | 8.41e5
HisT | DRSC06405 | -0.0523 | 6.99e5 | 7.53e5
CG12376 | DRSC29464 | 0.374 | 9.45e5 | 7.97e5
CG12376 | DRSC39520 | -2.03 (active) | 3.02e5 | 3.34e5
Nup358 | DRSC29772 | -2.64 (active) | 5.40e5 | 4.72e5
sit | DRSC15760 | 1.19 | 3.06e5 | 1.01e6
sit | DRSC25250 | 1.92 (active) | 1.12e6 | 1.06e6
CG8850 | DRSC07287 | -1.49 | 5.07e5 | 4.63e5
CG8850 | DRSC25965 | 1.15 | 1.08e6 | 9.09e5
MFS14 | DRSC29787 | -1.68 (active) | 4.29e5 | 4.46e5
MFS14 | DRSC39753 | 0.825 | 4.86e5 | 5.58e5
CG6836 | DRSC10722 | -1.62 (active) | 5.23e5 | 5.95e5
CG6836 | DRSC26906 | 0.765 | 9.42e5 | 1.07e6
syd | DRSC10963 | -0.475 | 6.51e5 | 7.11e5
syd | DRSC24418 | 1.19 | 9.66e5 | 1.03e6
CG7992 | DRSC20070 | -0.495 | 6.72e5 | 7.06e5
Tnpo-SR | DRSC00546 | 1.43 | 5.74e5 | 5.84e5
Tnpo-SR | DRSC38005 | 0.0913 | 6.17e5 | 5.57e5
